The values that follow come from publication PMC3967805.

Chains of the proteins cited; added tags and fusions are not shown. Residues count along the entry.
UniProt P02545, residues 1-646: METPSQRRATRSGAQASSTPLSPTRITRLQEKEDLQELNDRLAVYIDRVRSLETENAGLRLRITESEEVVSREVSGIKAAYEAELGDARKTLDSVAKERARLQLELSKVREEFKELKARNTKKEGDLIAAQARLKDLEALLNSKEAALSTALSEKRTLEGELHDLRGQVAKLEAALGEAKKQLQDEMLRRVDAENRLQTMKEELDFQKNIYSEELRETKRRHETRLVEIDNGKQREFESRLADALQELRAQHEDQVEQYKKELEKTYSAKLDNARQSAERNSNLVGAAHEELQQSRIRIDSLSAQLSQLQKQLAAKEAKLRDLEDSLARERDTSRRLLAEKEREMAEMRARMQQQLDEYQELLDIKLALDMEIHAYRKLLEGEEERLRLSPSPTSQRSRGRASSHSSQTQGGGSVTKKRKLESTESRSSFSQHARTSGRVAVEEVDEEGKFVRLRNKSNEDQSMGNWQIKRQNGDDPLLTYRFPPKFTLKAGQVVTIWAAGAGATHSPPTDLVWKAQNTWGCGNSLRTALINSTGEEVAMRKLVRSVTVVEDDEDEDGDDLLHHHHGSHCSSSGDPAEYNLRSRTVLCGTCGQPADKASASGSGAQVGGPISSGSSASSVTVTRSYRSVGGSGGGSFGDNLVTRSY

These are yes or no findings as the source states them, for the method shown. Binding seen in cells or lysates may run through a third protein. Some binding calls cover weakened binding; strength is not graded here.

The assay addresses T1, CHMP4B (human (endogenous in HeLa)) (UniProt Q9H444).
T1 sequence: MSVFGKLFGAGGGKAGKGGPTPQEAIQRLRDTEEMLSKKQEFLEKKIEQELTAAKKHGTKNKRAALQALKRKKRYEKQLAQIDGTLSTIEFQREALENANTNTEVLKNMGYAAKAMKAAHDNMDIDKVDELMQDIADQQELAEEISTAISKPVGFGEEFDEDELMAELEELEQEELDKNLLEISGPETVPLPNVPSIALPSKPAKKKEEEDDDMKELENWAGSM
Put plainly: co-IP; HeLa lysate (20 mM HEPES pH 7.2, 2 mM MgCl2, 100 mM NaCl, 0.1 mM EDTA, 0.1% Triton X-100) mixed 1 h at 4°C with Protein A beads coupled to rabbit anti-CHMP4B antibody (rabbit IgG as control); blot with anti-H2B, anti-Lamin A and anti-CHMP4B.

Regarding Lamin A (from UniProt P02545 1-646), the binding entry was “binds”.
